{"sequences": {"note": "The chains behind the UniProt entries cited, without tags or fusion partners. Residues count along the entry.", "UniProt O15379": "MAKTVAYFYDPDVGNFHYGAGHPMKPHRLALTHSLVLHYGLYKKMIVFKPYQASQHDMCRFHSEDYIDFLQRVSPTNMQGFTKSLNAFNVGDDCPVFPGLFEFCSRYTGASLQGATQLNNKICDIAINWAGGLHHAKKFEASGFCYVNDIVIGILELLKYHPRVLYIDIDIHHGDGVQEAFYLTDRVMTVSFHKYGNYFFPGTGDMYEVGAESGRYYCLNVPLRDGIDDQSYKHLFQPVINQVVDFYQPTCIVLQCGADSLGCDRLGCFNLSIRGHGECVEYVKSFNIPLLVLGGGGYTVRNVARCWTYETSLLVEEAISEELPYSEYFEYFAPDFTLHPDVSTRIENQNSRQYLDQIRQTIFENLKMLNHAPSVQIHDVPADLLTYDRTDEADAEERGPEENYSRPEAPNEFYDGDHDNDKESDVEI", "UniProt P49792": "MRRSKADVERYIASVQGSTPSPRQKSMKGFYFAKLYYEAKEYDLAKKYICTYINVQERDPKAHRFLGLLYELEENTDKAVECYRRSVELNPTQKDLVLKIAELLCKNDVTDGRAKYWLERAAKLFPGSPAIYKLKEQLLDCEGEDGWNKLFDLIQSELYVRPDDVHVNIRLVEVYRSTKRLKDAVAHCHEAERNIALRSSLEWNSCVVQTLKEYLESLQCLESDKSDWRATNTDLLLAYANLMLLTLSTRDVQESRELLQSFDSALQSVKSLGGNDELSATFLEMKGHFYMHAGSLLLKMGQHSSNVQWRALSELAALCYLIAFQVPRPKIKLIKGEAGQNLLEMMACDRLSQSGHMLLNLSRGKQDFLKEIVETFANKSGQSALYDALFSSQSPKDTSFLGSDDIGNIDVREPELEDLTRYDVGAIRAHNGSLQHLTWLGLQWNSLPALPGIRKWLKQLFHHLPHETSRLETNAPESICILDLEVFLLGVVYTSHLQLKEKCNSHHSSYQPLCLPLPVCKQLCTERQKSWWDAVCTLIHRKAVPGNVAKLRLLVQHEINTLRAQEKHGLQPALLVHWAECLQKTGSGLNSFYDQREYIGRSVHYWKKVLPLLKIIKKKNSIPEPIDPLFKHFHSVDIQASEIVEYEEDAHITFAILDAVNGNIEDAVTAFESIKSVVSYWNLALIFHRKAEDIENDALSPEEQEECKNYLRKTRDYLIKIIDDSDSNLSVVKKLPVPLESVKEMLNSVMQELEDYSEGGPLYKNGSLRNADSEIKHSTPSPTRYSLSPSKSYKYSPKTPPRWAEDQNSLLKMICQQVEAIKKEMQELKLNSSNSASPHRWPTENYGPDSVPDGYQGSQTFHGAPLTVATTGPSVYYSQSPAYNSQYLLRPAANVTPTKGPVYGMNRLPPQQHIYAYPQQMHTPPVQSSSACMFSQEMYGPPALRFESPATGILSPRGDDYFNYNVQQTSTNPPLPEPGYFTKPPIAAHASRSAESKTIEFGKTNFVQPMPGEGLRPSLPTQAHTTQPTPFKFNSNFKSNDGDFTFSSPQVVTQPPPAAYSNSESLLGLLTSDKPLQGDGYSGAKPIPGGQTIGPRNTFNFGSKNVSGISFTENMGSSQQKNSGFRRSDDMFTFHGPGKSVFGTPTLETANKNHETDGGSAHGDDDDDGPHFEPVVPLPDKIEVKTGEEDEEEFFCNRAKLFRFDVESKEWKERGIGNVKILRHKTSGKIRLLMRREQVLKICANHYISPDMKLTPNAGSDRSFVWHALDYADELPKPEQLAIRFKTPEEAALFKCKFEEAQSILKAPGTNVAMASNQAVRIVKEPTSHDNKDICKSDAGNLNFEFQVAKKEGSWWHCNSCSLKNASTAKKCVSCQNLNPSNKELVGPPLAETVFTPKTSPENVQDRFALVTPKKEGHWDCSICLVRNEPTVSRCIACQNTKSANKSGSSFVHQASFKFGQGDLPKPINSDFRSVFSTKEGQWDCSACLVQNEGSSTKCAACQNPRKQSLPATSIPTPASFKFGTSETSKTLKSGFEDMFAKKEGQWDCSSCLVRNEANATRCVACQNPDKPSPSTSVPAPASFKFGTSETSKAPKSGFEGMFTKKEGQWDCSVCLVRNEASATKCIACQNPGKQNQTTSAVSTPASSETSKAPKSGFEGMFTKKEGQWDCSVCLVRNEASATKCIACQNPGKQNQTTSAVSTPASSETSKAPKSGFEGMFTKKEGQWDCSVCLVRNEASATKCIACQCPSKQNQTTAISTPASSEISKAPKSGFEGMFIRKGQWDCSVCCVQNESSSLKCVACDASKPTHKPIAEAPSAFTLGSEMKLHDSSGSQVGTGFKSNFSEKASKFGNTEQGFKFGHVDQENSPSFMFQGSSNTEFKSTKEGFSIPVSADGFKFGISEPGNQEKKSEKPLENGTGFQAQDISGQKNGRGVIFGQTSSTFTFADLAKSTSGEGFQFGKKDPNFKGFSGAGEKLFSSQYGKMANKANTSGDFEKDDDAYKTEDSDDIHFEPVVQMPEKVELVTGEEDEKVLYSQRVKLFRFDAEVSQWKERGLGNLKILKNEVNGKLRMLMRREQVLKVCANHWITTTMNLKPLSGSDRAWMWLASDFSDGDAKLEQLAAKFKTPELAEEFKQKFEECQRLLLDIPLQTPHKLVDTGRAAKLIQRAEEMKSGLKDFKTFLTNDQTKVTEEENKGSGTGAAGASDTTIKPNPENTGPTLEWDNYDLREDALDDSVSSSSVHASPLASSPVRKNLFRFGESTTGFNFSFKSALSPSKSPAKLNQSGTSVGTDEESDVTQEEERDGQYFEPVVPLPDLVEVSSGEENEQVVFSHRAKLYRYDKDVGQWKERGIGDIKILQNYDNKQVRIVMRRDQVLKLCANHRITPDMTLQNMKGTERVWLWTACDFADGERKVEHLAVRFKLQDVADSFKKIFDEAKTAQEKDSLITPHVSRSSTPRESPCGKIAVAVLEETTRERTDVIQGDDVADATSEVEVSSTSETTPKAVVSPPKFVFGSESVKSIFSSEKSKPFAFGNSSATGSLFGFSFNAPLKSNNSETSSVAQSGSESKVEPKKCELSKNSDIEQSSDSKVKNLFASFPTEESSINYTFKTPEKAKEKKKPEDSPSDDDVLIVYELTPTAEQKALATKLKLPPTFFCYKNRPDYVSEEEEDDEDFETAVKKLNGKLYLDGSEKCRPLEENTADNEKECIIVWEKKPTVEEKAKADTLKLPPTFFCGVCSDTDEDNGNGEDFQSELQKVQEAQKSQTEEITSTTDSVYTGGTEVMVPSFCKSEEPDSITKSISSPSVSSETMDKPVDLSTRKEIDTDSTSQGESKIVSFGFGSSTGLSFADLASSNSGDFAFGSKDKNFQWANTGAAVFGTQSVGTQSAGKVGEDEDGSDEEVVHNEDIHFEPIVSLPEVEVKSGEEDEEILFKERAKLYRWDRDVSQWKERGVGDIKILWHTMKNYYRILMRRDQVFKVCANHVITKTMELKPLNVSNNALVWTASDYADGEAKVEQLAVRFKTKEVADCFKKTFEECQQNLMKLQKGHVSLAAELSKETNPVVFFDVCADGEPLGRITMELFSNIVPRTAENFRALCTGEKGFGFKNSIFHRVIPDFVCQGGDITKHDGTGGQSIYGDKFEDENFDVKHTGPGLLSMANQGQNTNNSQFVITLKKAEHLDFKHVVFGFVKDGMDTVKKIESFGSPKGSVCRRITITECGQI", "UniProt Q8TEM1, residues 27-1887": "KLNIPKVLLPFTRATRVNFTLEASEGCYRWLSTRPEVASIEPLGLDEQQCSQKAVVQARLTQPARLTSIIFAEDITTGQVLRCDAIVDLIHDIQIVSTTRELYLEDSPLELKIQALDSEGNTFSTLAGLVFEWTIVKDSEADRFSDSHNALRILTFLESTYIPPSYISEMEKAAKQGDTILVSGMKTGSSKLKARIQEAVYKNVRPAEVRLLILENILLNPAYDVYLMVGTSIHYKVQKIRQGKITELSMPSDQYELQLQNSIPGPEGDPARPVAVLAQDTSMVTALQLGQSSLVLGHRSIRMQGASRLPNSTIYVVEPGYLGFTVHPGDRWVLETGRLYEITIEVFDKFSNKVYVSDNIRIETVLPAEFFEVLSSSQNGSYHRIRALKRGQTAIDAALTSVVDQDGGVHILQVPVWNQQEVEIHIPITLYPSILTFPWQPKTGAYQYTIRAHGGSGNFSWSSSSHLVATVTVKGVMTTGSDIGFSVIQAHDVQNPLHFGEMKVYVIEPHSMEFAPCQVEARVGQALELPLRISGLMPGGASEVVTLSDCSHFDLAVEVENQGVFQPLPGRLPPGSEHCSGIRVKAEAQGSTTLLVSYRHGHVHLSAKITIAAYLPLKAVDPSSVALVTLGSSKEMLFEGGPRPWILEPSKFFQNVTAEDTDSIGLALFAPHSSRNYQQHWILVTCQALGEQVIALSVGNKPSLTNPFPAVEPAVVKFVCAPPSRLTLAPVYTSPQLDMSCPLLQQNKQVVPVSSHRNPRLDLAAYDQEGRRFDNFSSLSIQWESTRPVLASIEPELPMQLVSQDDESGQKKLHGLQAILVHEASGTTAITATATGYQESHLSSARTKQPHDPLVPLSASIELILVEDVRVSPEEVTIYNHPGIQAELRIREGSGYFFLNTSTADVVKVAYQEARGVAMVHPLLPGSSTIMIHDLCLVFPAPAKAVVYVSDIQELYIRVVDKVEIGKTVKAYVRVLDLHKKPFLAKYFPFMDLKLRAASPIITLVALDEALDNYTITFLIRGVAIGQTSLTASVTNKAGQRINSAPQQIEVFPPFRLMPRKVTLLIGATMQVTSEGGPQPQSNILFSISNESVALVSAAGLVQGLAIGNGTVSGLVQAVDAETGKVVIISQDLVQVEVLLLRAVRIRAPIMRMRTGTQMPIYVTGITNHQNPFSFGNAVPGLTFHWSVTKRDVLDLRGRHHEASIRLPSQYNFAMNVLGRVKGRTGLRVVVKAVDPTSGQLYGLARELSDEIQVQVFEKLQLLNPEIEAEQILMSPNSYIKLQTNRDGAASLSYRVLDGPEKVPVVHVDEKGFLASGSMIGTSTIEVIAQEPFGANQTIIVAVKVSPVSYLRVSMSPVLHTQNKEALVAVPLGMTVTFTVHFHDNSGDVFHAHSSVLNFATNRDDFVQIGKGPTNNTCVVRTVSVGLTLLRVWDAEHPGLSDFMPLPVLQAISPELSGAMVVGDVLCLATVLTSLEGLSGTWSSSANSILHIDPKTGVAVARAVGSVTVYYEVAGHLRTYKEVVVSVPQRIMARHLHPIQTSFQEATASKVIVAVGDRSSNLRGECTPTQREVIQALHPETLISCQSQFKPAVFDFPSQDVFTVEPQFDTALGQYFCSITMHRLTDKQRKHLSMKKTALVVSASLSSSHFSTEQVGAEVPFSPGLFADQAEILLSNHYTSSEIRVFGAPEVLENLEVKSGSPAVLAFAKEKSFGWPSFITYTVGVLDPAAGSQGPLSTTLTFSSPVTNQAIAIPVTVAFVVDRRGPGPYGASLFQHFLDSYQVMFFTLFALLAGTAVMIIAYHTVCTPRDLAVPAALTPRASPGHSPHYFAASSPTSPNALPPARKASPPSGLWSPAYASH"}, "source": "paper PMC11152124", "molecules": {"B1": {"name": "Nup96 (protein, UniProt P52948 881-1817)", "chain": "SKYGLQDSDEEEEEHPSKTSTKKLKTAPLPPASQTTPLQMALNGKPAPPPQSQSPEVEQLGRVVELDSDMVDITQEPVLDTMLEESMPEDQEPVSASTHIASSLGINPHVLQIMKASLLTDEEDVDMALDQRFSRLPSKADTSQEICSPRLPISASHSSKTRSLVGGLLQSKFTSGAFLSPSVSVQECRTPRAASLMNIPSTSSWSVPPPLTSVFTMPSPAPEVPLKTVGTRRQLGLVPREKSVTYGKGKLLMDMALFMGRSFRVGWGPNWTLANSGEQLNGSHELENHQIADSMEFGFLPNPVAVKPLTESPFKVHLEKLSLRQRKPDEDMKLYQTPLELKLKHSTVHVDELCPLIVPNLGVAVIHDYADWVKEASGDLPEAQIVKHWSLTWTLCEALWGHLKELDSQLNEPREYIQILERRRAFSRWLSCTATPQIEEEVSLTQKNSPVEAVFSYLTGKRISEACSLAQQSGDHRLALLLSQFVGSQSVRELLTMQLVDWHQLQADSFIQDERLRIFALLAGKPVWQLSEKKQINVCSQLDWKRSLAIHLWYLLPPTASISRALSMYEEAFQNTSDSDRYACSPLPSYLEGSGCVIAEEQNSQTPLRDVCFHLLKLYSDRHYDLNQLLEPRSITADPLDYRLSWHLWEVLRALNYTHLSAQCEGVLQASYAGQLESEGLWEWAIFVLLHIDNSGIREKAVRELLTRHCQLLETPESWAKETFLTQKLRVPAKWIHEAKAVRAHMESDKHLEALCLFKAEHWNRCHKLIIRHLASDAIINENYDYLKGFLEDLAPPERSSLIQDWETSGLVYLDYIRVIEMLRHIQQVDCSGNDLEQLHIKVTSLCSRIEQIQCYSAKDRLAQSDMAKRVANLLRVVLSLHHPPDRTSDSTPDPQRVPLRLLAPHIGRLPMPEDYAMDELRSLTQSYLRELAVGSL"}}, "note": "Results are given in words; binding and its absence hold for the method and conditions named. In cells and extracts the contact can be indirect. Some entries that bind do so weakly or less than the wild type.", "data": [{"target": "histone deacetylase 3 (HDAC3) (human (endogenous in 293T)) (UniProt O15379)", "test": "co-IP; HDAC3 immunoprecipitated with an anti-HDAC3 antibody (Cell Signaling Technology, 85057) and Protein A/G magnetic beads from 293T extracts (scramble control or Nup358-targeting shRNA, doxycycline); IP buffer 50 mM Tris pH 7.4, 150 mM NaCl, 0.5% NP-40, 1 mM EDTA, 1 mM MgCl2, 1 mM dithiothreitol, 20 mM N-ethylmaleimide; overnight at 4°C; control rabbit IgG; Western blot", "values": [{"molecule": "Nup358, also known as RanBP2 (from UniProt P49792 1-3224)", "binding": "binds"}, {"molecule": "Nup210 (from UniProt Q8TEM1 27-1887)", "binding": "binds"}, {"molecule": "B1", "binding": "no binding"}]}]}
